Consider one molecule from US20080241152A1 (VEGENICS, published 2008).

Amino acid sequences for entries named in this document (tags omitted). A change or cut given only in a name is not applied to a line headed by its entry. Chains listed by the source or under a name are the forms on record and can include a tag or linker.
recombinant Flt4 extracellular domain with C-terminal 6xHis tag (baculovirus), coupled to Sepharose (P35916, form named): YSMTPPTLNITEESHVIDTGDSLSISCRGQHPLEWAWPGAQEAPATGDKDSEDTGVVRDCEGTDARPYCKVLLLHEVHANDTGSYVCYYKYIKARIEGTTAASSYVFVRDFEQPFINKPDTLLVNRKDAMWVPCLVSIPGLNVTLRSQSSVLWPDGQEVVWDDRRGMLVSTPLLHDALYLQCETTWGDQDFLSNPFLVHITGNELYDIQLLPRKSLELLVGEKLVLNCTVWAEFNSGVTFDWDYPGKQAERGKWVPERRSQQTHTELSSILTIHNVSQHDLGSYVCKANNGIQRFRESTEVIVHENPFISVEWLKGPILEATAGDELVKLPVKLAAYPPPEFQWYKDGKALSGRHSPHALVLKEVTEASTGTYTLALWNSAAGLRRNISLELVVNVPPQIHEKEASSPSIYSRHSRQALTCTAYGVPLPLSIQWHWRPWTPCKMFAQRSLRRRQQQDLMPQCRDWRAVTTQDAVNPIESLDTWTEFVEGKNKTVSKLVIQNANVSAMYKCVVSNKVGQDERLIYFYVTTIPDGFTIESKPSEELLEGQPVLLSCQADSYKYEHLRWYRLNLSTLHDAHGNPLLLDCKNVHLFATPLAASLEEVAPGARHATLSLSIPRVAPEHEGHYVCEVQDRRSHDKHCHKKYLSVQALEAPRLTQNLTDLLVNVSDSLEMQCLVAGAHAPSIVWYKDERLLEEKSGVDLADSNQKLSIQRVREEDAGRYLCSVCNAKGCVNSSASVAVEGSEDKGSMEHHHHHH

For this test, the target named is recombinant Flt4 extracellular domain with C-terminal 6xHis tag (baculovirus), coupled to Sepharose (human) (UniProt P35916). As to the kind of experiment: pull-down of 35S-labelled Bosc23 medium with VEGFR-3 extracellular domain coupled to sepharose.

Results are given in words; binding and its absence hold for the method and conditions named. Binding seen in cells or lysates may run through a third protein. Some binding calls cover weakened binding; strength is not graded here.

B1: mouse VEGF-C (recombinant, medium of Bosc23 cells transfected with mouse VEGF-C cDNA) (ligand)
chain: FESGLGFSEAEPDGGEVKAFEGKDLEEQLRSVSSVDELMSVLYPDYWKMYKCQLRKGGWQQPTLNTRTGDSVKFAAAHYNTEILKSIDNEWRKTQCMPREVCIDVGKEFGAATNTFFKPPCVSVYRCGGCCNSEGLQCMNTSTGYLSKTLFEITVPLSQGPKPVTISFANHTSCRCMSKLDVYRQVHSIIRRSLPATLPQCQAANKTCPTNYVWNNYMCRCLAQQDFIFYSNVEDDSTNGFHDVCGPNKELDEDTCQCVCKGGLRPSSCGPHKELDRDSCQCVCKNKLFPNSCGANREFDENTCQCVCKRTCPRNQPLNPGKCACECTENTQKCFLKGKKFHHQTCSCYRRPCANRLKHCDPGLSFSEEVCRCVPSYWKRPHLN
As for B1, the binding entry is on record as “binds”.
